# In article PMC3720665:
# The chains behind the UniProt entries cited, without tags or fusion partners.
# UniProt Q9NXR7: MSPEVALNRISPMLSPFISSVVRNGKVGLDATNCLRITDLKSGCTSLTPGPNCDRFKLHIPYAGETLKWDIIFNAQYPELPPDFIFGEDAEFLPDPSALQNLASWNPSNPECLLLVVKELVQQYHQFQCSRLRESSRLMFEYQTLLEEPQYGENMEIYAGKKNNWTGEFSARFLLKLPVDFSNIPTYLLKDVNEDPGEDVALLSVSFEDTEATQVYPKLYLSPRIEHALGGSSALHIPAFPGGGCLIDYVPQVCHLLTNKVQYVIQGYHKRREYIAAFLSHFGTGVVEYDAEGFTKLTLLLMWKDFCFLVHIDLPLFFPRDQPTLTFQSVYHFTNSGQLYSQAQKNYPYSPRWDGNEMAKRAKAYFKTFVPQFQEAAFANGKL
# UniProt P07355: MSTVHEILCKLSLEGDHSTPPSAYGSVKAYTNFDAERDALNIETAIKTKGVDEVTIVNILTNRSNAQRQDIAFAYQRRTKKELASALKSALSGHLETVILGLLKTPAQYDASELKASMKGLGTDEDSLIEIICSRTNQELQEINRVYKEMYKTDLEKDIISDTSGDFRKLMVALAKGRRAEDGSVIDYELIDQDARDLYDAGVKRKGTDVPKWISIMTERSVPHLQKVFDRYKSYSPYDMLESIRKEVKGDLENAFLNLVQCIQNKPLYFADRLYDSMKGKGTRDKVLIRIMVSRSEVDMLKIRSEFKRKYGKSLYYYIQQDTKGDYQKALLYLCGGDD
# Results are given in words; binding and its absence hold for the method and conditions named. Binding seen in cells or lysates may run through a third protein. Some entries that bind do so weakly or less than the wild type.
# Target: BRE (human (endogenous in HUCPV cells)) (UniProt Q9NXR7)
# Assay: co-IP; endogenous BRE immunoprecipitated from HUCPV cell lysates (Ctl-siRNA and BRE-siRNA treated cells) with a monoclonal BRE antibody on Sepharose beads overnight; lysis buffer 50 mM Tris pH 8.0, 150 mM NaCl, 1% NP-40, 0.5% sodium deoxycholate; Western blot for BRE, actin and ANXA2
substance,measurement,value
annexin A2 (from UniProt P07355 1-339),binding,binds
